No constants are given. Whether binding was seen depends on the method and setting. Some results given as binding are weak or reduced against the parent protein; the word gives no strength. Tags and fused reporters may be left off the sequences shown.
What was measured:
[1] = target: T1, mouse CD47 on wild-type or QPCTL-reconstituted murine cells (B16F10, Ba/F3-Her2) (mouse) (UniProt Q61735); assay: flow cytometry on WT and QPCTL-reconstituted B16F10 and Ba/F3-Her2 cells
T1 sequence (QPCTL-dependent pyroglutamate at the N-terminus, looked up): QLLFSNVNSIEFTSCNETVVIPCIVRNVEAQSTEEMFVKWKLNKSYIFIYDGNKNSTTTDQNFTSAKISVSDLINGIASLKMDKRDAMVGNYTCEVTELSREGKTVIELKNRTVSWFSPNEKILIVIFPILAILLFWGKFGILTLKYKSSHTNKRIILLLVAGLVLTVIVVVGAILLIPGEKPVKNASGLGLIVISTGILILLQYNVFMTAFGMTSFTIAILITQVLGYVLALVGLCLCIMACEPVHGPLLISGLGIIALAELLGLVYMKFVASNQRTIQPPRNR

[2] = target: T2, mouse CD47 on QPCTL knockout or SEN177-treated murine cells (B16F10, Ba/F3-Her2) (mouse) (UniProt Q61735); assay: flow cytometric sorting of B16F10 cells transfected with sgRNA against murine QPCTL; low binding
T2 sequence (lacking the QPCTL-dependent N-terminal pyroglutamate, looked up): T1 sequence (QPCTL-dependent pyroglutamate at the N-terminus, looked up)

[3] = target: T2, mouse CD47 on QPCTL knockout or SEN177-treated murine cells (B16F10, Ba/F3-Her2) (mouse); assay: flow cytometry on QPCTL knockout B16F10 and Ba/F3-Her2 cells (likewise reduced after SEN177); weaker than on WT cells

binding [1]: binds | binding [2]: binds | binding [3]: binds
B1: recombinant mouse SIRP alpha/CD172a Fc Chimera Protein (R&D Systems) (Fc fusion, UniProt P97797 32-373, looked up, not shown: a dimerising Fc or GST)
chain: KELKVTQPEKSVSVAAGDSTVLNCTLTSLLPVGPIRWYRGVGPSRLLIYSFAGEYVPRIRNVSDTTKRNNMDFSIRISNVTPADAGIYYCVKFQKGSSEPDTEIQSGGGTEVYVLAKPSPPEVSGPADRGIPDQKVNFTCKSHGFSPRNITLKWFKDGQELHPLETTVNPSGKNVSYNISSTVRVVLNSMDVNSKVICEVAHITLDRSPLRGIANLSNFIRVSPTVKVTQQSPTSMNQVNLTCRAERFYPEDLQLIWLENGNVSRNDTPKNLTKNTDGTYNYTSLFLVNSSAHREDVVFTCQVKHDQQPAITRNHTVLGFAHSSDQGSMQTFPDNNATHNWN

Reference: patent publication US20220087981A1
